Results reported in PubChem BioAssay AID336 (DTP/NCI, 2004).
The list shows only some results of the screen, not a fair sample: it gathers some chemical classes. Other doses and runs of a compound may be missing. T/C is the treated group as % of the vehicle group. For survival time, the PubChem record calls one and a half times the control and up active, and a quarter to a half above the control has no call in these data; cut-offs in other NCI protocols can differ. Some entries show no survivor count and are marked so; the dose need not have been tolerated. Schedules are NCI's codes, read here as Q, the interval in days (D) or hours (H), X, the number of doses. Brackets with × stand for listed records that agree. Some entries were tested several times; their values stand side by side, smallest first.

System: BDF1 mice, P388/VCR leukemia ip, median survival T/C
Test: NCI In Vivo Anticancer Drug Screen. Data for tumor model P388 Leukemia resistant to Vincristine; NSC 67574 (intraperitoneal) in B6D2F1 (BDF1) mice
Conditions: T/C endpoint: median survival time, schedule: Q01DX010 (ip), vehicle: saline, higher T/C = longer survival
Experimental: The antitumor activity of compounds was measured in mice bearing transplantable tumors. Survival or tumor size were measured and the results are expressed as the measurement made in the treated group (T) divided by the measurement made in the vehicle treated control group (C). The tumor model used in this assay is P388 Leukemia resistant to Vincristine; NSC 67574 (intraperitoneal) in B6D2F1 (BDF1) mice

NC(Cc1ccccc1N(CCCl)CCCl)C(=O)O (stereo not drawn)
T/C (dose: 0.25 mg/kg/injection): 173 % of control [survivor count not shown]
T/C (dose: 0.5 mg/kg/injection): 210 % of control [survivor count not shown]
T/C (dose: 1.0 mg/kg/injection): 93 % of control [survivor count not shown]

NC(Cc1cccc(N(CCCl)CCCl)c1)C(=O)O (stereo not drawn)
T/C (dose: 0.63 mg/kg/injection): 211 % of control [survivor count not shown]
T/C (dose: 1.25 mg/kg/injection): 230 % of control [survivor count not shown]

ClCCN(CCCl)Cc1nc2ccccc2[nH]1
T/C (dose: 1.25 mg/kg/injection): 130 % of control [survivor count not shown]
T/C (dose: 2.5 mg/kg/injection): 169 % of control [survivor count not shown]
T/C (dose: 5.0 mg/kg/injection): 100 % of control [survivor count not shown]
T/C (dose: 10.0 mg/kg/injection): 92 % of control [survivor count not shown]

CC(C(=O)O)N(CCCl)CCCl (stereo not drawn)
T/C (dose: 0.25 mg/kg/injection): 133 % of control [survivor count not shown]
T/C (dose: 0.5 mg/kg/injection): 120 [survivor count not shown] and 160 % of control [survivor count not shown]
T/C (dose: 1.0 mg/kg/injection): 130 [survivor count not shown] and 145 % of control [survivor count not shown]
T/C (dose: 2.0 mg/kg/injection): 191 % of control [survivor count not shown] (2×)

ClCCNCCCl
T/C (dose: 18.8 mg/kg/injection): 127 [survivor count not shown] and 131 % of control [survivor count not shown]
T/C (dose: 37.5 mg/kg/injection): 177 % of control [survivor count not shown] (2×)
T/C (dose: 75.0 mg/kg/injection): 95 % of control [survivor count not shown]

O=C(O)CN(CCCl)CCCl
T/C (dose: 0.31 mg/kg/injection): 141 % of control [survivor count not shown]
T/C (dose: 0.63 mg/kg/injection): 133 [survivor count not shown] and 165 % of control [survivor count not shown]
T/C (dose: 1.25 mg/kg/injection): 158 [survivor count not shown] and 165 % of control [survivor count not shown]
T/C (dose: 2.5 mg/kg/injection): 134 [survivor count not shown] and 183 % of control [survivor count not shown]

NC1CCCCC1.NP(=O)(O)N(CCCl)CCCl
T/C (dose: 15.6 mg/kg/injection): 233 [survivor count not shown] and 237 % of control [survivor count not shown]
T/C (dose: 31.3 mg/kg/injection): 229 [survivor count not shown], 250 [survivor count not shown], 287 % of control [survivor count not shown]
T/C (dose: 62.5 mg/kg/injection): 91 [survivor count not shown] and 241 % of control [survivor count not shown]
